Among the data in US20220088193A1 (AGONOX, published 2022) are binding values, retold here.

Protein sequences, listed by entry. Tags and fused reporters are not part of them. Lines headed by an entry give the natural chain unless they say otherwise; changes in a name come on top.
UniProt P08174: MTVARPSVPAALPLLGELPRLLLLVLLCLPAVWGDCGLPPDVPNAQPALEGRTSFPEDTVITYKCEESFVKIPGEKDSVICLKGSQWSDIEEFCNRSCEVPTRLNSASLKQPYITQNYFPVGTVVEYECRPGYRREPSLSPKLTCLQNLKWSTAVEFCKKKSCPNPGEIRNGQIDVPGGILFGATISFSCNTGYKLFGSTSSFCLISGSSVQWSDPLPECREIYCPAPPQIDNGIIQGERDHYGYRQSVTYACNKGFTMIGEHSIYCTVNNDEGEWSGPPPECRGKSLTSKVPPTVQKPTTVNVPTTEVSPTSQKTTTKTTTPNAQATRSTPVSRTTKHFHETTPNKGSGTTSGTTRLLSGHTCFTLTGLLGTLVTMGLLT

Assay [1] addresses T1, mouse CD55 (mouse, UniProt Q61475 35-362, limits assumed).
T1 sequence (looked up): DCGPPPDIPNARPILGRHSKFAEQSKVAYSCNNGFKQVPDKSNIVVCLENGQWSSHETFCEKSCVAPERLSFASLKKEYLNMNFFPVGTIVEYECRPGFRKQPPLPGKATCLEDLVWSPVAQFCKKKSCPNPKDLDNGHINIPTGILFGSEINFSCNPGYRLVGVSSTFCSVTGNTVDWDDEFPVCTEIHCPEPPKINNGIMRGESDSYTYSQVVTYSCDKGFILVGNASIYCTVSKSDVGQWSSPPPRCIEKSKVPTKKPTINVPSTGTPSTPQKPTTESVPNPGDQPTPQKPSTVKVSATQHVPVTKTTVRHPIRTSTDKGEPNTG
Nature of the assay: library screen, species specificity summary.

Assay [2] addresses T1, mouse CD55. Nature of the assay: screening of human antibody libraries.
Assay [3] deals with Plate-bound CD55 (Homo sapiens (Human)) (UniProt P08174). Nature of the assay: competition ELISA; unlabeled antibody pre-bound to plate-bound CD55.

No constants are given. Whether binding was seen depends on the method and setting. Some entries that bind do so weakly or less than the wild type.

B1: P5-1 (antibody, V domains shown)
VH: EVQLVESGGGLVQPGGSLRLSCAASGFTFSSYYIHWVRQAPGKGLEWVAAISSSSGSTYYADSVKGRFTISADTSKNTAYLQMNSLRAEDTAVYYCARERYFYGDFVFDYWGQGTLVTVSS
VL: DIQMTQSPSSLSASVGDRVTITCRASQSVSSAVAWYQQKPGKAPKLLIYSASSLYSGVPSRFSGSRSGTDFTLTISSLQPEDFATYYCQQYYSSPLTFGQGTKVEIKR
Consider B1, for which the binding result with mouse CD55 [1] and with mouse CD55 [2] was “binds” each time.

B2: P5-2-2A (antibody, V domains shown)
VH: EVQLVESGGGLVQPGGSLRLSCAASGFTFSSYYIHWVRQAPGKGLEWVAAISSSSGSTYYADSVKGRFTISADTSKNTAYLQMNSLRAEDTAVYYCAREARFHGDFILDYWGQGTLVTVSS
VL: DIQMTQSPSSLSASVGDRVTITCRASQSVSSAVAWYQQKPGKAPKLLIYSASSLYSGVPSRFSGSRSGTDFTLTISSLQPEDFATYYCQQYYITPLTFGQGTKVEIKR
Regarding B2, the binding result (in the assay with mouse CD55 [1]; with mouse CD55 [2]; in assay [3]) was “binds” each time.

B3: P5-4 (antibody, V domains shown)
VH: EVQLVESGGGLVQPGGSLRLSCAASGFTFSSYYIHWVRQAPGKGLEWVAAISSSSGSTYYADSVKGRFTISADTSKNTAYLQMNSLRAEDTAVYYCAREDYYWGDFVFDYWGQGTLVTVSS
VL: DIQMTQSPSSLSASVGDRVTITCRASQSVSSAVAWYQQKPGKAPKLLIYSASSLYSGVPSRFSGSRSGTDFTLTISSLQPEDFATYYCQQYYSSPLTFGQGTKVEIKR
For B3, the binding result (with mouse CD55 [1]; with mouse CD55 [2]; in assay [3]) was “binds” in each case.

B4: P5-1J (antibody, V domains shown)
VH: EVQLVESGGGLVQPGGSLRLSCAASGFTFSHHYIHWVRQAPGKGLEWVAAISTGGGTTYYADSVKGRFTISADTSKNTAYLQMNSLRAEDTAVYYCARERYFNGDFIYDYWGQGTLVTVSS
VL: DIQMTQSPSSLSASVGDRVTITCRASQSVSSAVAWYQQKPGKAPKLLIYSASSLYSGVPSRFSGSRSGTDFTLTISSLQPEDFATYYCQQYYSTPLTFGQGTKVEIKR
notes: also called biotinylated P5-1J; unlabeled P5-1J
For B4, the binding entry in the assay with mouse CD55 [1] is “binds”.
